To fix the notation:
B1: il2ra_site2_2erj_normal_mot_HHH_b2_01204_af2_000000056_0001_19_34_H_._HHH_b1_07526_0001_0000500022_0000001_0 (protein)
chain: SSSSLEEAYKTLVELLRLLSEGDDEKFEELVEEFERKLEEEGDEVTLESFREFAEWLREAQSSSS
B2: il2ra_site1_2b5i_normal_mot_HHH_b1_02271_000000068_0001_1_16_H_._HHH_b1_08003_0001_0000900024_0000001_0_af2pred_dldesign_0_af2pred (protein)
chain: SSSSSDKKAEVERLIEEAERLYKAGKRREALEKLNEAKKLADAADDEELEDKIEELAKKISSSSS
B3: il2ra_site1_3nfp_sap_14_mot_HHH_b2_03042_af2_000000210_0001_23_39_H_._5473c73378f943375813cc6914cdbd9c_0001_0001_0000500020_0000001_0_0001_af2pred_0001_af2pred (protein)
chain: SSSSSDAQRRVLELLEQLRELLKEGDEEEAEKLLEELKRLAEEINDKAVRILIERFERKLKSSSS
B4: il2ra_site2_2erj_normal_mot_39ed66e5fba071e4f274ea7f2cf018e6_0001_000000286_0001_17_31_H_._HHH_b2_07194_0002_0000700018_0000001_0 (protein)
chain: SSSSSDEEEREQVRRLLEEAERVSWEEAWELLREAFRLAARLRDEELLREIAEVFERIARSSSSS
B5: il2ra_site1_1z92_normal_mot_HHH_b1_01565_af2_000000147_0001_1_17_H_._HHH_b2_06643_af2_0001_0000300025_0000001_0_af2pred_0001_af2pred (protein)
chain: SSSSSDLERILRKAARVIARLAGLDEEEREELEEIARELAERGVDREEAIRILHEVALKLGSSSS
B6: il2ra_site1_2b5i_normal_mot_22370d59370c406a0c205a431f537cfa_0001_af2_000000141_0001_1_31_H_._HHH_b1_01338_af2_0001_0000100004_0000001_0 (protein)
chain: SSSSDRELTHFAVRVIWRLRVEFGLSAEQARELDRIAAHLVNEGVSEEEIEEILREVAEELSSSS
B7: il2ra_site2_2erj_sap_21_mot_HHH_b1_03752_000000035_0001_21_37_H_._HHH_b1_08163_0001_0000100002_0000001_0_0001 (protein)
chain: SSSSNEELHELYELAVELMRLAAEGDEEEFEHLAEELKRLAEELQSDVVREIVENLEQLISSSSS
B8: il2ra_site2_2erj_sap_18_mot_HHH_b1_00163_af2_000000268_0001_19_36_H_._HHH_b2_03331_0001_0000700032_0000001_0_0001 (protein)
chain: SSSSDEEEEAKELAEELERALEEGDEELFRRLAWELLRFAWEYNDELAQKLLTELFRKNGSSSSS
B9: il2ra_site1_2b5i_normal_mot_58506191a346798b4b085b1ef2d4ae87_0001_000000013_0001_36_50_H_._HHH_b1_04463_0001_0000300018_0000001_0_af2pred_dldesign_0_af2pred (protein)
chain: SSSSDEEKRKELEELIKRIADKLKSPGLEKFLRRALDIALAQGDDLDDIKKQLLELEKKLSSSSS
B10: il2ra_site2_2erj_sap_26_mot_3b06bd03f1c6bceadc68eab912867b79_0001_000000296_0001_36_50_H_._HHH_b2_01466_af2_0001_0000500007_0000001_0_0001 (protein)
chain: SSSSSDEEEIEELIEQAKRIEDPEERFKVLSRAFELAYKLGNIELAAEIAELALEAEEEGSSSSS
B11: il2ra_site2_3nfp_sap_12_mot_HHH_b2_02049_000000004_0001_42_55_H_._HHH_b1_02393_0001_0000200035_0000001_0_0001 (protein)
chain: SSSDETRERVEELLKEVEELIKEGNEEEAERVLLEAALVAAEGRDREAFMLVNELLARLARSSSS
B12: il2ra_site1_3nfp_normal_mot_46d73865503fbedcaf0f3a45445d594c_0001_af2_000000151_0001_1_12_H_._HEEHE_0493_0001_0000200015_0000001_0 (protein)
chain: NDERVVARLIELAAKSAGVPSVEVEVENGRLRVEFEGNDEAVRQAIEAAKRLVEQFNVEIEIEVS
B13: il2ra_site1_1z92_sap_12_mot_f199c3973e161bc1da28d4790bc84bcd_0001_1_000000051_0001_1_14_H_._HHH_b1_04987_af2_0001_0000100004_0000001_0_0001_af2pred_0001_af2pred … (protein)
chain: SEEQRELLEKILGDPELAKVVLRDFERAEENSGDPENALKAVLLVLEKSGDVSPEQLKLIEEILR
B14: il2ra_site1_2b5i_sap_10_mot_HHH_b1_05947_000000126_0001_42_56_H_._HHH_b1_07611_0001_0000300016_0000001_0_0001_af2pred_0001_af2pred (protein)
chain: SSSSDDQEITELYREASELFRNGNPEEAKKVLEEALKLAKEAGDEHIFEQLEQLRELIRGSSSSS
B15: il2ra_site2_3nfp_sap_29_mot_3824cfb560b92ee870597236e80092b0_0001_000000220_0001_16_33_H_._a446f3f13a1e079202495c9b702b595a_0001_0001_0000300013_0000001_0_0001_ … (protein)
chain: SSSSSSEEEERVRELLEEAKEIEDEREARIVLLLALAIALEAGDEELEREVEKVARELFGSSSSS
B16: il2ra_site2_3nfp_normal_mot_HHH_b1_00660_af2_000000090_0001_40_57_H_._HHH_b2_04221_0001_0000300017_0000001_0_af2pred_0001_af2pred (protein)
chain: SSSSSDEEEEEVEELLEEAKKIDDPEEREEVLKRAATVASENRDFELYALVSRVFEELASSSSSS
B17: il2ra_site2_2erj_sap_17_mot_678ce523d3521e26f84bf18760a59296_0001_000000113_0001_1_12_H_._HHH_b1_07656_af2_0001_0000100001_0000001_0_0001 (protein)
chain: SSSSSEELHRIYELANRILHAISRNNPEEVEELIEEAEELIREANNEAAEKILETLKRLFNSSSS
B18: il2ra_site1_3nfp_normal_mot_HHH_b1_06045_af2_000000189_0001_3_17_H_._HHH_b1_08576_0001_0000400025_0000001_0_af2pred_0001_af2pred_1 (protein)
chain: SSSSSDLEERVEELLKEARELYERGNPLEAARVLDEAFKIAAEADNPELTEEIYRLMQEVSSSSS
B19: il2ra_site2_3nfp_sap_14_mot_HHH_b1_03818_000000217_0001_1_20_H_._HHH_b2_00677_af2_0001_0000400015_0000001_0_0001 (protein)
chain: SSSSSDEVEELLEEVERLLREGNEEEAERVILRAAALAAEANDFEAFAKVSELRERIAGSSSSSS

The values that follow come from article PMC10163288.

The list shows a part of the results.

The target in the assay is il2ra, P01589. Description: yeast display titration.
As for B1, the “apparent Kd” value was “inactive: no binding seen”.

As to B2, the “apparent Kd” value is “inactive: no binding seen”.

B3: the “apparent Kd” value was “inactive: no binding seen”.

Regarding B4, the “apparent Kd” value is “inactive: no binding seen”.

On to B5, for which the “apparent Kd” value is “inactive: no binding seen”.

For B6, the “apparent Kd” value is “inactive: no binding seen”.

Turning to B7, the “apparent Kd” value was “inactive: no binding seen”.

Regarding B8, the “apparent Kd” value was “inactive: no binding seen”.

As for B9, the “apparent Kd” value is “inactive: no binding seen”.

On to B10, for which the “apparent Kd” value is “inactive: no binding seen”.

As to B11, the “apparent Kd” value was “inactive: no binding seen”.

Turning to B12, the “apparent Kd” value is “inactive: no binding seen”.

For B13, the “apparent Kd” value was “inactive: no binding seen”.

Turning to B14, the “apparent Kd” value is “inactive: no binding seen”.

As for B15, the “apparent Kd” value was “inactive: no binding seen”.

As for B16, the “apparent Kd” value is “inactive: no binding seen”.

Turning to B17, the “apparent Kd” value is “inactive: no binding seen”.

B18: the “apparent Kd” value was “inactive: no binding seen”.

Regarding B19, the “apparent Kd” value was “inactive: no binding seen”.
